# Reference: the supplement of paper PMC11732987, “Enantioselective OTUD7B fragment discovery through chemoproteomics screening and high-throughput optimisation” (Communications Chemistry, 2025)
# Sequences of proteins named here, by UniProt entry; tags and fusion partners are left off. A change or cut given only in a name is not applied to a line headed by its entry. Residues count along the entry.
# UniProt P51570: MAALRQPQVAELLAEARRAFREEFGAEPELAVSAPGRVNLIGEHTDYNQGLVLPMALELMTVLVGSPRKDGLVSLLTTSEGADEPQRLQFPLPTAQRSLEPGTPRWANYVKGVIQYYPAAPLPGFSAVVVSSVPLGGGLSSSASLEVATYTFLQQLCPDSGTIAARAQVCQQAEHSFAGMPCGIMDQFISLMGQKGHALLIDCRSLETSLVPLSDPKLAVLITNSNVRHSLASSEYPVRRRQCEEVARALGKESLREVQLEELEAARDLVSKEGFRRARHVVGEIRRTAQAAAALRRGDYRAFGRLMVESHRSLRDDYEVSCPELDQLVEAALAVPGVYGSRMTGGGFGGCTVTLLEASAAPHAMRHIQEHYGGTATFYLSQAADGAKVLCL
# UniProt Q14332, whole entry, looked up: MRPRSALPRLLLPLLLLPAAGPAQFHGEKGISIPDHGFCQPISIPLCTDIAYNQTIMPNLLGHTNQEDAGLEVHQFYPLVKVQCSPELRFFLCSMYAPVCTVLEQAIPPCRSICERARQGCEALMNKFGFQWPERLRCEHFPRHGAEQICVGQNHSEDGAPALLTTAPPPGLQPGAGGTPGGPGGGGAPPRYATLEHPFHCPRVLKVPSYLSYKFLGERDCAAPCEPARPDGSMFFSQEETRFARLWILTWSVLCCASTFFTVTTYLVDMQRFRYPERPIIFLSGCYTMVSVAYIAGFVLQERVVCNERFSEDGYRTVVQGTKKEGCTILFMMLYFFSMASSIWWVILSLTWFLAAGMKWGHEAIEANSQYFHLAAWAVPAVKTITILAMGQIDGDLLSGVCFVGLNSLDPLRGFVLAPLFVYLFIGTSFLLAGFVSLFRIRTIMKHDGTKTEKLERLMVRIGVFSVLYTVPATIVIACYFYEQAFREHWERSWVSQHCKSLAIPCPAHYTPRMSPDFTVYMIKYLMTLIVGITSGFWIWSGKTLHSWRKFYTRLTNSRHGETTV
# UniProt Q96ME1: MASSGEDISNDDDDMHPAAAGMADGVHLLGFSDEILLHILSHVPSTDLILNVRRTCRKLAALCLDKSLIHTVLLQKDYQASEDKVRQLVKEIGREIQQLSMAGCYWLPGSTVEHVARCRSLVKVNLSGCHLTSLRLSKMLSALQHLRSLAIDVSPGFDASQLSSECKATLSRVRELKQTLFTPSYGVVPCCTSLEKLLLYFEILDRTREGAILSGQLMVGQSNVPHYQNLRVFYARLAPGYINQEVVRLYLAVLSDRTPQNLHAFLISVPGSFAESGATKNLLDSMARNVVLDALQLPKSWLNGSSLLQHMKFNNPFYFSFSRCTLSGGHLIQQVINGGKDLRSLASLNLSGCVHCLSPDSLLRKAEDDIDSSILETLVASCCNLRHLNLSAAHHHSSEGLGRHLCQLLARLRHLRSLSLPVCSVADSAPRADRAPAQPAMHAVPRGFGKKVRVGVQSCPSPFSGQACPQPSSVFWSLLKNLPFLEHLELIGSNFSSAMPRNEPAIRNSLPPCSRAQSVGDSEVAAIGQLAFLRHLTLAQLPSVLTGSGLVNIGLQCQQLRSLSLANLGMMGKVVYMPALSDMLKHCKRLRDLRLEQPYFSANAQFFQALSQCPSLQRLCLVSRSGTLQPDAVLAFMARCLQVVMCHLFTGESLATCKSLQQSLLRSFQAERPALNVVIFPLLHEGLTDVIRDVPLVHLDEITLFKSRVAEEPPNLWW
# UniProt Q13642: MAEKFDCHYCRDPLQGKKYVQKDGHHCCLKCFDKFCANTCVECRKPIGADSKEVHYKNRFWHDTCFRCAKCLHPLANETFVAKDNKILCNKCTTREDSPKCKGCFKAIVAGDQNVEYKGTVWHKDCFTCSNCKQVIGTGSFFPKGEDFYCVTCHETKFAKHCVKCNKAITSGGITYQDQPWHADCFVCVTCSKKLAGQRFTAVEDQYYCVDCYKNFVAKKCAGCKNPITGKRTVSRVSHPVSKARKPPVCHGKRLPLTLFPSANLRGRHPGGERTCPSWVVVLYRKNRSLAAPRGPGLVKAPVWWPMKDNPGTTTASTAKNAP
# UniProt Q0JRZ9, 604-626: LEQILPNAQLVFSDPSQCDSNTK
# UniProt P22830: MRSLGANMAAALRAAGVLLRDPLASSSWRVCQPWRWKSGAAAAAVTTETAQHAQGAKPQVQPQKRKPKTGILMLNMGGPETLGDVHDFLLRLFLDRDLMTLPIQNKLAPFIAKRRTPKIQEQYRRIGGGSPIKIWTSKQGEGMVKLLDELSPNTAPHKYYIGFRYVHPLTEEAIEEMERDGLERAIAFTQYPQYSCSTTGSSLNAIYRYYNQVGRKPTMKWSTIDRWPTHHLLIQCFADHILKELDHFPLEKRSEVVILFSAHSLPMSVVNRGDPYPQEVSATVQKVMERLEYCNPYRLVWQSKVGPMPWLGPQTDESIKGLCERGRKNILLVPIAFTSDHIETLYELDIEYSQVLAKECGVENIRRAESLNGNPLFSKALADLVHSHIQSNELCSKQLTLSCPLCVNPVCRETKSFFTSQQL
# UniProt Q8NFG4, 321-341: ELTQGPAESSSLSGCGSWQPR
# UniProt Q96I24: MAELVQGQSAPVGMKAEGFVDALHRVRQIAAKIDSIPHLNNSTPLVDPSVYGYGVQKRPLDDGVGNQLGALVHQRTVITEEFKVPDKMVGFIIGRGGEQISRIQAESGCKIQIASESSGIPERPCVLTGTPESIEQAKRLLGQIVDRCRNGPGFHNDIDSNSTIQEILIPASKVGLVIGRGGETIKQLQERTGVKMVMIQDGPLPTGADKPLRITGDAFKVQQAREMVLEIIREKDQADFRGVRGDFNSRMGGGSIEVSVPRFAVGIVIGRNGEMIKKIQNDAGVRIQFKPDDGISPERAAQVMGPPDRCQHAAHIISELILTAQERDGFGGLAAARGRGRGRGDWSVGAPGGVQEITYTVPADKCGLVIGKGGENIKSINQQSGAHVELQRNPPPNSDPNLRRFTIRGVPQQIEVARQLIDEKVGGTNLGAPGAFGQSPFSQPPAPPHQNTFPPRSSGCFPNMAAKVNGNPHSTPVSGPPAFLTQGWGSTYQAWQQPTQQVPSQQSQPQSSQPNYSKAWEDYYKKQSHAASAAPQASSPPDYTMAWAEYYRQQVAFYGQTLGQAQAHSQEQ
# The other results are listed elsewhere or left out. The data scatter; read single values as rough.
# How the values were obtained:
# [1] = compound: ClCC(=O)N[C@@H]1CCCc2ccccc12; experiment: log2 mean competition ratio of IA-DTB cysteine labelling (DMSO/compound) (log2 ratio); higher = stronger cysteine engagement by compound; settings: treatment time: 4 h, cell line lysate: HEK293T
# Experimental: (§1)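 IA-DTB competitive cysteine chemoproteomics in HEK293T RIPA lysate. Lysates were treated with compound 29 or 30 at 50 or 200 µM for 4 h, then IA-DTB (500 µM, 1 h), trypsin-digested, NeutrAvidin-enriched and analysed by diaPASEF. Competition ratio = intensity DMSO / intensity compound (n=4 treated, n=64 DMSO); binding: mean log2 CR ≥ 1 and p ≤ 0.05 plus QC filters. Target is the cysteine site.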
# [2] = compound: ClCC(=O)N[C@H]1CCCc2ccccc12; experiment: as above; settings: treatment time: 4 h, cell line lysate: HEK293T
# Experimental: as §1
Target,log2 mean competition ratio ([1]; 50 µM),log2 mean competition ratio ([1]; 200 µM),log2 mean competition ratio ([2]; 50 µM),log2 mean competition ratio ([2]; 200 µM)
GALK1 C203 (UniProt P51570),-0.254,-0.122,0.633,0.0847
GARS1 C461,-0.0889,-0.134,0.383,-0.049
FZD2 C499 (UniProt Q14332),-0.224,0.3,0.0898,0.264
FHIP1A C270,0.094,0.484,-0.0347,0.511
FBXL18 C63 (UniProt Q96ME1),-0.144,0.0809,-0.586,0.0568
FHL1 C65 (UniProt Q13642),0.36,0.237,0.494,-0.0239
FCHO2 C621 (UniProt Q0JRZ9),0.268,0.334,-0.0116,0.0069
FECH C294 (UniProt P22830),-0.251,–,-0.429,-0.285
FRMD4A C183,0.0397,0.317,-0.0856,-0.0554
FLCN C335 (UniProt Q8NFG4),-0.185,0.129,0.348,0.447
FUBP3 C109 (UniProt Q96I24),-0.19,0.0584,-0.132,0.194

# Full records as entered above. Values in the order: log2 mean competition ratio ([1]; 50 µM)	log2 mean competition ratio ([1]; 200 µM)	log2 mean competition ratio ([2]; 50 µM)	log2 mean competition ratio ([2]; 200 µM)
# FCHO2 C621 (UniProt Q0JRZ9) as listed: 0.268	0.334	-0.0116	0.0069
# FRMD4A C183 as listed: 0.0397	0.317	-0.0856	-0.0554
